From patent US20060276520A1 (priority 2002, published 2006)
For part of its entries the source gives two or more results. They are shown here; other results are not. An entry can have further records. Values given together do not match, cause unknown; some may be repeats, others may stem from another dose, organism or construct than stated.

Amino acid sequences for entries named in this document (tags omitted).
UniProt Q9NYG5, whole entry: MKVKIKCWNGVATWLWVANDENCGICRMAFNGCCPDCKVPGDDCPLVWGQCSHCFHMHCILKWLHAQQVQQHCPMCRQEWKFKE
UniProt Q9UJX6, whole entry: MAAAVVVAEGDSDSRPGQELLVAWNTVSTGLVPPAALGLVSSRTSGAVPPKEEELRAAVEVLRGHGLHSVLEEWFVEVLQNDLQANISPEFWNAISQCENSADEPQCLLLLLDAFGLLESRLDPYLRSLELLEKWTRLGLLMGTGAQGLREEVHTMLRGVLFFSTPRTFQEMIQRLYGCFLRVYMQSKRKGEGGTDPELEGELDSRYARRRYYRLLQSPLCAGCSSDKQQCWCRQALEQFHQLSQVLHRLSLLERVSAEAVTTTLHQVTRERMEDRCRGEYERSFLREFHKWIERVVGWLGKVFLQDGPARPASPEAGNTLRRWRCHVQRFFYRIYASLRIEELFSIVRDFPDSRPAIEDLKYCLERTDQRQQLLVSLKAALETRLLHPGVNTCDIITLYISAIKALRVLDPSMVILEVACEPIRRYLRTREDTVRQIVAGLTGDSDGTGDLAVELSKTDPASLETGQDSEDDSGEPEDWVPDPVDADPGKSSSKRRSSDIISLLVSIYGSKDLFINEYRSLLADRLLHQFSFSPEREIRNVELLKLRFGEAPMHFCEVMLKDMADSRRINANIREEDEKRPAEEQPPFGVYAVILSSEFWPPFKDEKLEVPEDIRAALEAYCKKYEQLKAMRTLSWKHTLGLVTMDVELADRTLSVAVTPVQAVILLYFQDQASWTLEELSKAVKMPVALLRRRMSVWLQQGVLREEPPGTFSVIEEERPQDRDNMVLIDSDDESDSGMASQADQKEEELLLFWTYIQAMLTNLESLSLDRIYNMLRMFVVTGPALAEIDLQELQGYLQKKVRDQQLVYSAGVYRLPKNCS

Biological target: APC2/APC11 (Homo sapiens, UniProt Q9NYG5+Q9UJX6)
Assay: Second ubiquitin assay, APC2/APC11 free in solution, products separated by size-exclusion HPLC (GEL)
Conditions: read-out: LIGASE E3 APC2/APC11 H E1/GEL IC50, gel-filtration HPLC read-out, expected mixture of 5E and 5Z isomers

With O=C(O)c1ccc(-c2ccc(/C=C3\SC(=S)N(C4CCCCC4)C3=O)o2)cc1 as the compound, how does the IC50 read?
The IC50 was 2 µM and 20 µM.
